Measurements reported in PubChem BioAssay AID504764 (Drosophila RNAi Screening Center, 2011)
Purpose: 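Genes whose knock-down alters Notch-dependent transcription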 (primary screen). Cells: Drosophila Kc167 cells. Reagent: long dsRNA against Drosophila genes. Time to read-out: about 5 days (4 days dsRNA, then 24 h after transfection). Treatment: transfection of constitutively active membrane-tethered Notch lacking the extracellular domain, read 24 h later. Detection: 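Light from a Notch-responsive E(spl)m3 luciferase reporter under active Notch, with control-promoter and no-Notch reporter wells to normalise; raw counts from paired wells a and b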. Reading the numbers: induced reporter light, run 1, well a and induced reporter light, run 1, well b: higher = more light from the Notch target reporter with active Notch; control promoter light, run 1, well a and control promoter light, run 1, well b: higher = more light from the viral control promoter (cell number, transfection, viability); uninduced reporter light, run 1, well a: higher = more light from the Notch target reporter without active Notch. Call rule: 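Wells with low control signal or poorly matching duplicates excluded; duplicates averaged; per source plate, z beyond ±2 for induced/control log2 ratio or beyond ±1.8 for induced/uninduced marks a hit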. Meaning of the calls: active = modifier hit (raised or lowered Notch signal); inactive = not a hit.
The screen tested about 22,000 reagents; this is a random part of those with a known target gene and a result. Over the whole deposit, 403 (1.9%) got an active call. 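Unnormalised raw counts per well; ratio z-scores behind the hit calls and whether each hit raises or lowers signal are not deposited.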 Names joined by + are all predicted targets of the reagent. Not given: the amount of reagent.

What is on record for Ir56b [DRSC06543]?
induced reporter light, run 1, well a: 1.55e5; induced reporter light, run 1, well b: 1.06e5; control promoter light, run 1, well a: 1.31e5; control promoter light, run 1, well b: 1.27e5; uninduced reporter light, run 1, well a: 11060; call: inactive

What is on record for tgy [DRSC20045]?
induced reporter light, run 1, well a: 73595; induced reporter light, run 1, well b: 1.07e5; control promoter light, run 1, well a: 1.03e5; control promoter light, run 1, well b: 1.19e5; uninduced reporter light, run 1, well a: 10605; call: inactive

What did the screen give for Vps16A [DRSC16422]?
induced reporter light, run 1, well a: 98175; induced reporter light, run 1, well b: 1.42e5; control promoter light, run 1, well a: 2.09e5; control promoter light, run 1, well b: 1.60e5; uninduced reporter light, run 1, well a: 7992; call: inactive

For CG11125 [DRSC06042], what was measured?
induced reporter light, run 1, well a: 1.38e5; induced reporter light, run 1, well b: 1.40e5; control promoter light, run 1, well a: 1.84e5; control promoter light, run 1, well b: 1.99e5; uninduced reporter light, run 1, well a: 12295; call: inactive

Which result is listed for tzn [DRSC11755]?
induced reporter light, run 1, well a: 1.65e5; induced reporter light, run 1, well b: 1.61e5; control promoter light, run 1, well a: 1.37e5; control promoter light, run 1, well b: 1.44e5; uninduced reporter light, run 1, well a: 12610; call: inactive

What did the screen give for CG10366 [DRSC02046]?
induced reporter light, run 1, well a: 2.38e5; induced reporter light, run 1, well b: 2.00e5; control promoter light, run 1, well a: 1.91e5; control promoter light, run 1, well b: 2.17e5; uninduced reporter light, run 1, well a: 15590; call: inactive

Which result is listed for tkv [DRSC00860]?
induced reporter light, run 1, well a: 81325; induced reporter light, run 1, well b: 84680; control promoter light, run 1, well a: 79400; control promoter light, run 1, well b: 95210; uninduced reporter light, run 1, well a: 8450; call: inactive

With tkv [DRSC03623], what does the deposit list?
induced reporter light, run 1, well a: 1.94e5; induced reporter light, run 1, well b: 1.99e5; control promoter light, run 1, well a: 1.80e5; control promoter light, run 1, well b: 1.76e5; uninduced reporter light, run 1, well a: 17615; call: inactive

With CG3491 [DRSC01934], how do the results read?
induced reporter light, run 1, well a: 1.39e5; induced reporter light, run 1, well b: 1.32e5; control promoter light, run 1, well a: 1.53e5; control promoter light, run 1, well b: 1.44e5; uninduced reporter light, run 1, well a: 9520; call: inactive

For ste24b [DRSC07315], what does the deposit list?
induced reporter light, run 1, well a: 1.30e5; induced reporter light, run 1, well b: 97655; control promoter light, run 1, well a: 1.14e5; control promoter light, run 1, well b: 1.30e5; uninduced reporter light, run 1, well a: 5945; call: inactive

For Nrx-IV [DRSC11238], how do the results read?
induced reporter light, run 1, well a: 1.23e5; induced reporter light, run 1, well b: 1.09e5; control promoter light, run 1, well a: 88800; control promoter light, run 1, well b: 56790; uninduced reporter light, run 1, well a: 10570; call: inactive

2 entries already listed, arranged by “uninduced reporter light, run 1, well a”, lowest first.
tzn [DRSC11755] → induced reporter light, run 1, well a = 1.65e5; induced reporter light, run 1, well b = 1.61e5; control promoter light, run 1, well a = 1.37e5; control promoter light, run 1, well b = 1.44e5; uninduced reporter light, run 1, well a = 12610; call = inactive
CG10366 [DRSC02046] → induced reporter light, run 1, well a = 2.38e5; induced reporter light, run 1, well b = 2.00e5; control promoter light, run 1, well a = 1.91e5; control promoter light, run 1, well b = 2.17e5; uninduced reporter light, run 1, well a = 15590; call = inactive

Continued:
For CG4306 [DRSC10409], how do the results read?
induced reporter light, run 1, well a: 2.63e5; induced reporter light, run 1, well b: 2.08e5; control promoter light, run 1, well a: 2.48e5; control promoter light, run 1, well b: 2.18e5; uninduced reporter light, run 1, well a: 9370; call: inactive

Which result is listed for CG14237 [DRSC14731]?
induced reporter light, run 1, well a: 1.21e5; induced reporter light, run 1, well b: 53435; control promoter light, run 1, well a: 1.39e5; control promoter light, run 1, well b: 1.15e5; uninduced reporter light, run 1, well a: 10810; call: inactive

What did the screen give for BORCS6 [DRSC08514]?
induced reporter light, run 1, well a: 1.63e5; induced reporter light, run 1, well b: 1.96e5; control promoter light, run 1, well a: 2.58e5; control promoter light, run 1, well b: 2.17e5; uninduced reporter light, run 1, well a: 9240; call: inactive

For Poc1 [DRSC09713], what was measured?
induced reporter light, run 1, well a: 1.58e5; induced reporter light, run 1, well b: 1.49e5; control promoter light, run 1, well a: 1.32e5; control promoter light, run 1, well b: 86000; uninduced reporter light, run 1, well a: 13475; call: inactive

Which result is listed for Tep1 [DRSC03450]?
induced reporter light, run 1, well a: 94570; induced reporter light, run 1, well b: 1.24e5; control promoter light, run 1, well a: 1.51e5; control promoter light, run 1, well b: 1.52e5; uninduced reporter light, run 1, well a: 8835; call: inactive

What is on record for gpp [DRSC12515]?
induced reporter light, run 1, well a: 72905; induced reporter light, run 1, well b: 75275; control promoter light, run 1, well a: 34500; control promoter light, run 1, well b: 44535; uninduced reporter light, run 1, well a: 6818; call: inactive

How did the screen score gpp [DRSC12516]?
induced reporter light, run 1, well a: 34870; induced reporter light, run 1, well b: 54425; control promoter light, run 1, well a: 35430; control promoter light, run 1, well b: 23545; uninduced reporter light, run 1, well a: 7080; call: inactive

How did the screen score Cnx99A + Cnx14D [DRSC16610]?
induced reporter light, run 1, well a: 1.28e5; induced reporter light, run 1, well b: 1.27e5; control promoter light, run 1, well a: 2.06e5; control promoter light, run 1, well b: 2.15e5; uninduced reporter light, run 1, well a: 10835; call: inactive

What is on record for Chpf [DRSC19491]?
induced reporter light, run 1, well a: 1.74e5; induced reporter light, run 1, well b: 1.13e5; control promoter light, run 1, well a: 1.83e5; control promoter light, run 1, well b: 1.74e5; uninduced reporter light, run 1, well a: 10085; call: inactive

What is on record for Chpf [DRSC19893]?
induced reporter light, run 1, well a: 1.98e5; induced reporter light, run 1, well b: 1.83e5; control promoter light, run 1, well a: 2.29e5; control promoter light, run 1, well b: 1.98e5; uninduced reporter light, run 1, well a: 13890; call: inactive

With CG5079 [DRSC15713], how do the results read?
induced reporter light, run 1, well a: 18865; induced reporter light, run 1, well b: 15738; control promoter light, run 1, well a: 15360; control promoter light, run 1, well b: 14150; uninduced reporter light, run 1, well a: 5720; call: inactive

With CG31098 [DRSC14259], what was measured?
induced reporter light, run 1, well a: 1.57e5; induced reporter light, run 1, well b: 1.42e5; control promoter light, run 1, well a: 1.78e5; control promoter light, run 1, well b: 1.72e5; uninduced reporter light, run 1, well a: 10788; call: inactive

How did the screen score Ptx1 [DRSC16804]?
induced reporter light, run 1, well a: 1.14e5; induced reporter light, run 1, well b: 1.43e5; control promoter light, run 1, well a: 1.30e5; control promoter light, run 1, well b: 1.24e5; uninduced reporter light, run 1, well a: 8305; call: inactive
